Measurements as given in the supplement of paper PMC10849652.
The other results are listed elsewhere or left out.

Amino acid sequences for entries named in this document (tags omitted). A change or cut given only in a name is not applied to a line headed by its entry.
UniProt Q9UMS4: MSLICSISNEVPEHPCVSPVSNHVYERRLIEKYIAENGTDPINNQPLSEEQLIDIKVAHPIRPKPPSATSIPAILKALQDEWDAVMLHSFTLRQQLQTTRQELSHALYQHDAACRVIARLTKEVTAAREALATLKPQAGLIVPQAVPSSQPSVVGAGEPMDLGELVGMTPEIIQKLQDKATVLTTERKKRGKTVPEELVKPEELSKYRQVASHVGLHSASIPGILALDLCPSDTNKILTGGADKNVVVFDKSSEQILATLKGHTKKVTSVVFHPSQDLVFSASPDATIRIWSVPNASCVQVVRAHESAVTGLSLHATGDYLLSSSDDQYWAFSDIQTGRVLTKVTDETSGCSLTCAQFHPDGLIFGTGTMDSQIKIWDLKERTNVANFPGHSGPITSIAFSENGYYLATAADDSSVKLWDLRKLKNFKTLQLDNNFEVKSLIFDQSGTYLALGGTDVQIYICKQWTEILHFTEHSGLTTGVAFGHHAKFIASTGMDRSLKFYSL
UniProt Q8WY54: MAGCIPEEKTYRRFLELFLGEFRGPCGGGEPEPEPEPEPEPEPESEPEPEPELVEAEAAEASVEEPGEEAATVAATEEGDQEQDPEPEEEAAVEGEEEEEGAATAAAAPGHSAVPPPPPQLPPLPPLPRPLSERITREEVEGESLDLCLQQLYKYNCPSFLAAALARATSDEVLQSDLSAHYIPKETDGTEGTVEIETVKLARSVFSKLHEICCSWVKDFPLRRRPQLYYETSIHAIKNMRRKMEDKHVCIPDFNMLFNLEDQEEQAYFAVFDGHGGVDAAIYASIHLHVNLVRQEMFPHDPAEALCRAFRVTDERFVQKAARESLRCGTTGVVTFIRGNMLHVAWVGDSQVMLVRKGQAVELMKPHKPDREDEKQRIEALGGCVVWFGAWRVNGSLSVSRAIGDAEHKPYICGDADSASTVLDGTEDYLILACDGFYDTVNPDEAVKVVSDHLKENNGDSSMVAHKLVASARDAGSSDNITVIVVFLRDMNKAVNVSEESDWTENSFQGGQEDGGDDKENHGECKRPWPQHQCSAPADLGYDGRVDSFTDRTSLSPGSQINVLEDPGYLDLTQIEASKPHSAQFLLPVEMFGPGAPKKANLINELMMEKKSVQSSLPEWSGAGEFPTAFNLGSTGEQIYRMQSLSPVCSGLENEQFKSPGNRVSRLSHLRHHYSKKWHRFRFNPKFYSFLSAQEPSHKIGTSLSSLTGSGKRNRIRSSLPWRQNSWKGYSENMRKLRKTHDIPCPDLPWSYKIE
UniProt Q99633: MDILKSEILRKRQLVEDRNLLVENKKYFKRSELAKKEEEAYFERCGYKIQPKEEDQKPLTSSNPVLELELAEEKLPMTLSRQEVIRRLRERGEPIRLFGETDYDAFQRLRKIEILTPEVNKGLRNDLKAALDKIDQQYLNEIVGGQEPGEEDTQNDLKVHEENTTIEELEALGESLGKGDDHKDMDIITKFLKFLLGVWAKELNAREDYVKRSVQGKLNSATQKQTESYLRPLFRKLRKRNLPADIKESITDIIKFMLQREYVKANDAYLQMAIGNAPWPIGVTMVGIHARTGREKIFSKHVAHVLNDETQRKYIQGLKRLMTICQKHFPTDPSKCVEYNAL
UniProt Q13162: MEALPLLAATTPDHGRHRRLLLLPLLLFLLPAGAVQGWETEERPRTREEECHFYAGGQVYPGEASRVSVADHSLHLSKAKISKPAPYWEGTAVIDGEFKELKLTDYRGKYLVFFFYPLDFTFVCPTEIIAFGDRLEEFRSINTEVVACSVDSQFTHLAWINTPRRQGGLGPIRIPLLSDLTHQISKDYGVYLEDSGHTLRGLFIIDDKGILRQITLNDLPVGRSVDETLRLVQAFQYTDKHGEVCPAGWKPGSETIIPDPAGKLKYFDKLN
UniProt P30154, whole entry, looked up: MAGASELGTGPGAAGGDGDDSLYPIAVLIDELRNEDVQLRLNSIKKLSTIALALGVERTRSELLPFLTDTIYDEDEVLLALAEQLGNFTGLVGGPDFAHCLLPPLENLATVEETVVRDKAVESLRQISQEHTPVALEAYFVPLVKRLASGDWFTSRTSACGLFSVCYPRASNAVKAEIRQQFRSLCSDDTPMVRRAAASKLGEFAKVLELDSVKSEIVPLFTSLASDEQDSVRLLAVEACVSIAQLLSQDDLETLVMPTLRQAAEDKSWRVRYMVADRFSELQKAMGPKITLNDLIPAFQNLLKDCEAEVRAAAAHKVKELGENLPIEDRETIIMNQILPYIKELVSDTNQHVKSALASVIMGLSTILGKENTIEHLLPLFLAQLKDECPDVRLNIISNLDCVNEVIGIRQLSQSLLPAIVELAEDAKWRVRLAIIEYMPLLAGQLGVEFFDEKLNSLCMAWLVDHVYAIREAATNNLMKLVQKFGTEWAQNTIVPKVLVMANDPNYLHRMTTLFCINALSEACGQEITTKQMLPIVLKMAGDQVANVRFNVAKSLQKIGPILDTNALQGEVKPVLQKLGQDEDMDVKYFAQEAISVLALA
UniProt Q12972: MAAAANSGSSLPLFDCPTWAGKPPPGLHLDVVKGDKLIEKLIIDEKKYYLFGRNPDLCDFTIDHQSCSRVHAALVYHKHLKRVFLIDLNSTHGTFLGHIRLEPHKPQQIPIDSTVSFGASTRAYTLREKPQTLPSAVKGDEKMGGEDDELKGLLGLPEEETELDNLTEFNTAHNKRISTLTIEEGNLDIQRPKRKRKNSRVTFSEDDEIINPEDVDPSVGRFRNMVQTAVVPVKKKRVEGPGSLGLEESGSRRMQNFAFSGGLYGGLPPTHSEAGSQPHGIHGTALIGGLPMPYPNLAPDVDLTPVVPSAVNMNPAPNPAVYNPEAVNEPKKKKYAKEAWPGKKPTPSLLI
UniProt Q92733: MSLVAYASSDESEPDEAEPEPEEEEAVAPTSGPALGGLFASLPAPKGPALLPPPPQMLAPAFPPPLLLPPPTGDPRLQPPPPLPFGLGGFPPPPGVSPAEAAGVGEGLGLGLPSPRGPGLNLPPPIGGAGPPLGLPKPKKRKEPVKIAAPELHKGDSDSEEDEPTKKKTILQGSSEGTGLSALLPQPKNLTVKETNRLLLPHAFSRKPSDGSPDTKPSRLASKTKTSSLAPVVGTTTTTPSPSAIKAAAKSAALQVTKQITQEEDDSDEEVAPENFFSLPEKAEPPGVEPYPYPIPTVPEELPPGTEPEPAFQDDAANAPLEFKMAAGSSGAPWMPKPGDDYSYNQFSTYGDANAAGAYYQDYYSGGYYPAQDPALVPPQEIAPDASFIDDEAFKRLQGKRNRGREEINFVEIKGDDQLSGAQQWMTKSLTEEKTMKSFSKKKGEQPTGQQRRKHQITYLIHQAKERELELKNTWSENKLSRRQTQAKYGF
UniProt Q6NYC8: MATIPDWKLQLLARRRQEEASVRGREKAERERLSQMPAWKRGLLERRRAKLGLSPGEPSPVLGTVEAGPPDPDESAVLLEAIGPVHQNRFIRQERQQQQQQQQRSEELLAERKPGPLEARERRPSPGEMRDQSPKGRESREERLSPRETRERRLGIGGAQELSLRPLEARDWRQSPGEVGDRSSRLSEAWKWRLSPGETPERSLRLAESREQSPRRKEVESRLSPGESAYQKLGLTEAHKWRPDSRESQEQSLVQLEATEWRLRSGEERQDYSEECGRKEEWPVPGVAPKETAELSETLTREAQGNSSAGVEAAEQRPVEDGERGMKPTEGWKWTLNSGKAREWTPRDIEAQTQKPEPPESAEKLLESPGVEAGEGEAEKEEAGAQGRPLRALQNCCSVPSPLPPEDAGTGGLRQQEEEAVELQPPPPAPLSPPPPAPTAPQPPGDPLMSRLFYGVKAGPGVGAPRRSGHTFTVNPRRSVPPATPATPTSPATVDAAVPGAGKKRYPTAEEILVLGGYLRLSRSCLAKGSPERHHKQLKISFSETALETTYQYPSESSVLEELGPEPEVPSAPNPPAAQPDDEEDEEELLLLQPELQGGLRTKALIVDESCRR
UniProt Q9HCU5: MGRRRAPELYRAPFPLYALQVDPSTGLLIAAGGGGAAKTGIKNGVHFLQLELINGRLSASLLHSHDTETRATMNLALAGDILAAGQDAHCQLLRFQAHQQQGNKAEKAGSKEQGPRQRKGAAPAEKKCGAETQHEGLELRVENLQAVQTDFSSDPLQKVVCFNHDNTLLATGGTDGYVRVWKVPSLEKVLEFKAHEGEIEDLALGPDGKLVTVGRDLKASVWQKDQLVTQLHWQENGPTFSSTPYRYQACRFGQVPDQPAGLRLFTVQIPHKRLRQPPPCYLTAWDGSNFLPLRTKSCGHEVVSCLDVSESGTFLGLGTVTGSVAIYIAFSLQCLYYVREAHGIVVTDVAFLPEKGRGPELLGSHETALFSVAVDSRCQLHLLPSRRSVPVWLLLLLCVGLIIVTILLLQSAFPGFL
UniProt Q96M27: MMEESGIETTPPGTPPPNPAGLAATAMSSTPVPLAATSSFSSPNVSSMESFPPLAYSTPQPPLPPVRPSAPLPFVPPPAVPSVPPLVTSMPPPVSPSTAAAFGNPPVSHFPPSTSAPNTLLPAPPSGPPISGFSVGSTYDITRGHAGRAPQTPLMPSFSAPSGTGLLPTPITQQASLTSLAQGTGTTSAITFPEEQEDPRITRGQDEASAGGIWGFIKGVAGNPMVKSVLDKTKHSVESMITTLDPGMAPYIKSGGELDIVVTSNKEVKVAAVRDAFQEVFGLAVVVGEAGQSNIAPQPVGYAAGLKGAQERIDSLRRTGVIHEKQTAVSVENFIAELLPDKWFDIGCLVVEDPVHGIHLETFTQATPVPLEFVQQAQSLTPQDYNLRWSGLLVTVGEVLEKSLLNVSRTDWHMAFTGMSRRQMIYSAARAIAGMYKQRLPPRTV
UniProt O60927: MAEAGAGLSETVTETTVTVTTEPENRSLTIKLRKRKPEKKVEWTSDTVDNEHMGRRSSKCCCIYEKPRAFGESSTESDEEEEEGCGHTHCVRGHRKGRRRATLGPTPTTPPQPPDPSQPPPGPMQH
UniProt O75170: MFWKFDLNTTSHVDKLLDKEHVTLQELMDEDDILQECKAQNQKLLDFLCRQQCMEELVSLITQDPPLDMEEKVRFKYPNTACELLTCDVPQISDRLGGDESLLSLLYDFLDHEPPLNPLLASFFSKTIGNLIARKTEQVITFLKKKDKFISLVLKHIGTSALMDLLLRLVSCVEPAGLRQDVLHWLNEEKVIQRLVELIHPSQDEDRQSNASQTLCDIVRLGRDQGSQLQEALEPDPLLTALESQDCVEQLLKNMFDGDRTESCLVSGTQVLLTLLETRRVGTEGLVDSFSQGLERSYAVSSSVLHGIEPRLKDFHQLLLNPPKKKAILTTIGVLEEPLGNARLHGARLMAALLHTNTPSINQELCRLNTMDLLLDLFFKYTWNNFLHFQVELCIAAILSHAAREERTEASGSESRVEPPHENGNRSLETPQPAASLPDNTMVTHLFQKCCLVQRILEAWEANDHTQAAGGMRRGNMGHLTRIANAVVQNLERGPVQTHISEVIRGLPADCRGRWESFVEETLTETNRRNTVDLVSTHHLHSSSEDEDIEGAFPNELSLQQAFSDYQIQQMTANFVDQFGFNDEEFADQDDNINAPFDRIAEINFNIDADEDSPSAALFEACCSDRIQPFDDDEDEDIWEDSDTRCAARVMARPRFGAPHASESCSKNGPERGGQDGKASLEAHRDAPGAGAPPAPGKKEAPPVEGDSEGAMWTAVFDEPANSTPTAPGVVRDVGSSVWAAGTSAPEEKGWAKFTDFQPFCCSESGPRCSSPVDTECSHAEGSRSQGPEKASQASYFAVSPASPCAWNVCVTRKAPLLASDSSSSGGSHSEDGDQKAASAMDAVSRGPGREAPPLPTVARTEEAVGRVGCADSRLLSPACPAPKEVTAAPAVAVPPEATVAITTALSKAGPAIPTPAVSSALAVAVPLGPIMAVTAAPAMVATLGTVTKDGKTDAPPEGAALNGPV
UniProt P48147: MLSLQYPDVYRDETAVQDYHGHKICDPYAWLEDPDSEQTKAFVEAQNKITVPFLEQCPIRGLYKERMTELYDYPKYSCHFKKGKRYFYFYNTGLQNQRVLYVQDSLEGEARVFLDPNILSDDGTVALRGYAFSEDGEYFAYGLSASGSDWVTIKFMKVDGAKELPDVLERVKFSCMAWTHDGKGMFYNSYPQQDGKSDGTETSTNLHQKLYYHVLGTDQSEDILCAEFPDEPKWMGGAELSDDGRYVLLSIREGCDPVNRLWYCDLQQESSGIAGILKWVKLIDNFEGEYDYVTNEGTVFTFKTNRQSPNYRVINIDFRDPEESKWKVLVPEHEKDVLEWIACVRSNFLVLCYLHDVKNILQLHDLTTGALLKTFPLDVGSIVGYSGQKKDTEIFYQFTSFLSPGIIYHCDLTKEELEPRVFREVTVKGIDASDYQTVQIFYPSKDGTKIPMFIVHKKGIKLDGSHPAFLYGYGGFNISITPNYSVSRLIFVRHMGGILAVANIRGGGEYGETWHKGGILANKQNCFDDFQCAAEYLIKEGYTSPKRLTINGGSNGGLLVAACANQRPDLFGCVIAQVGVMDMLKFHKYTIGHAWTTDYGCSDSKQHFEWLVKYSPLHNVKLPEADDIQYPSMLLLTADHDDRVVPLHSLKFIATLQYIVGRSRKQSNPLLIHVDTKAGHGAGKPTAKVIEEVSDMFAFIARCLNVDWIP

Assays:
Experiment in all cases: log2 fold change, soluble protein after heating vs DMSO (PISA); higher = thermal stabilisation; K562 cells, 10 uM, 30 min; active = over 0.2 and 3.5 SD of the protein, either way, in both replicates (recomputed)
[1] = compound: COC1=CC=C(C=C1)CN2C=CC3=C2C=C(C=C3)C(=O)NO
Outline: (§1)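 Thermal stability values are relative to control samples and come from duplicates. They are expressed as log2 fold changes. For measurement, K562 cells (2×10^6 cells/mL) received 10 μM compound for 30 min, and aliquots were heated for 3 min over 48°C-58°C, pooled, and extracted at 4°C in PBS with 0.5% NP-40. Soluble protein, the supernatant after 21,000xg for 90 min, was quantified by TMTpro 16plex LC-MS/MS with equalised channel sums.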

filanesib = compound: CON(C)C(=O)N1N=C(c2cc(F)ccc2F)S[C@@]1(CCCN)c1ccccc1 [filanesib]
Outline: as §1

zotarolimus = compound: CO[C@H]1C[C@@H]2CC[C@@H](C)[C@@](O)(O2)C(=O)C(=O)N2CCCC[C@H]2C(=O)O[C@H]([C@H](C)C[C@@H]2CC[C@H](n3cnnn3)[C@H](OC)C2)CC(=O)[C@H](C)/C=C(\C)[C@@H](O)[C@@H](OC)C(=O)[C@H](C)C[C@H](C)/C=C/C=C/C=C/1C [zotarolimus]
Outline: as §1

idasanutlin = compound: COc1cc(C(=O)O)ccc1NC(=O)[C@@H]1N[C@@H](CC(C)(C)C)[C@](C#N)(c2ccc(Cl)cc2F)[C@H]1c1cccc(Cl)c1F [idasanutlin]
Outline: as §1

alisertib = compound: COc1cc(Nc2ncc3c(n2)-c2ccc(Cl)cc2C(c2c(F)cccc2OC)=NC3)ccc1C(=O)O [alisertib]
Outline: as §1

[2] = compound: COc1cc2nc(-c3cc(F)ccc3O)nc(N[C@@H]3CNC[C@H]3C(C)(C)O)c2cc1OC
Outline: as §1

gefitinib = compound: COc1cc2ncnc(Nc3ccc(F)c(Cl)c3)c2cc1OCCCN1CCOCC1 [gefitinib]
Outline: as §1

[3] = compound: COc1cccc2cc(-c3nc([C@H]4CC[C@H](C(=O)O)CC4)n4ncnc(N)c34)[nH]c12
Outline: as §1

lapatinib = compound: CS(=O)(=O)CCNCc1ccc(-c2ccc3ncnc(Nc4ccc(OCc5cccc(F)c5)c(Cl)c4)c3c2)o1 [lapatinib]
Outline: as §1

pictilisib = compound: CS(=O)(=O)N1CCN(Cc2cc3nc(-c4cccc5[nH]ncc45)nc(N4CCOCC4)c3s2)CC1 [pictilisib]
Outline: as §1

[4] = compound: CS(=O)(=O)c1ccc(-c2cnc(N)c(C(=O)Nc3ccccc3)n2)cc1
Outline: as §1

crizotinib = compound: C[C@@H](Oc1cc(-c2cnn(C3CCNCC3)c2)cnc1N)c1c(Cl)ccc(F)c1Cl [crizotinib]
Outline: as §1

[5] = compound: C[C@@H]1COCCN1C2=NC(=NC(=C2)C3(CC3)S(=O)(=O)C)C4=C5C=CNC5=CC=C4
Outline: as §1

[6] = compound: C[C@H](C1=CC=C(C=C1)C(=O)NC2=C3C=CNC3=NC=C2)N
Outline: as §1

duvelisib = compound: C[C@H](Nc1ncnc2nc[nH]c12)c1cc2cccc(Cl)c2c(=O)n1-c1ccccc1 [duvelisib]
Outline: as §1

gandotinib = compound: Cc1cc(Nc2cc(CN3CCOCC3)c3nc(C)c(Cc4ccc(Cl)cc4F)n3n2)n[nH]1 [gandotinib]
Outline: as §1

tozasertib = compound: Cc1cc(Nc2cc(N3CCN(C)CC3)nc(Sc3ccc(NC(=O)C4CC4)cc3)n2)n[nH]1 [tozasertib]
Outline: as §1

[7] = compound: Cc1cc(SCc2sc(-c3ccc(C(F)(F)F)cc3)nc2C)ccc1OCC(=O)O
Outline: as §1

doramapimod = compound: Cc1ccc(-n2nc(C(C)(C)C)cc2NC(=O)Nc2ccc(OCCN3CCOCC3)c3ccccc23)cc1 [doramapimod]
Outline: as §1

ispinesib = compound: Cc1ccc(C(=O)N(CCCN)[C@@H](c2nc3cc(Cl)ccc3c(=O)n2Cc2ccccc2)C(C)C)cc1 [ispinesib]
Outline: as §1

Measured: log2 fold change

PRPF19 (UniProt Q9UMS4)
inactive: [1] -0.013 | filanesib -0.013 | zotarolimus -0.014 | idasanutlin -0.045 | alisertib -0.043 | [2] 0.055 | gefitinib -0.001 | [3] 0.048 | lapatinib -0.012 | pictilisib -0.017 | [4] -0.028 | crizotinib 0.165 | [5] -0.004 | [6] -0.015 | duvelisib 0.017 | gandotinib -0.002 | tozasertib -0.062 | [7] -0.041 | doramapimod -0.014 | ispinesib 0.076

PPM1E (UniProt Q8WY54)
inactive: [1] -0.069 | filanesib 0.002 | zotarolimus 0.065 | idasanutlin -0.08 | alisertib -0.052 | [2] 0.094 | gefitinib -0.006 | [3] 0.142 | lapatinib 0.004 | pictilisib 0.056 | [4] 0.005 | crizotinib 0.011 | [5] 0.043 | [6] -0.028 | duvelisib -0.009 | gandotinib -0.068 | tozasertib 0.044 | [7] 0.089 | doramapimod 0.003 | ispinesib -0.032

PPP6C isoform 3 (UniProt O00743)
inactive: [1] -0.071 | filanesib -0.022 | zotarolimus 0.015 | idasanutlin -0.005 | alisertib -0.04 | [2] -0.006 | gefitinib 0.001 | [3] 0.036 | lapatinib -0.011 | pictilisib 0.02 | [4] 0.027 | crizotinib 0.035 | [5] 0.02 | [6] 0.007 | duvelisib 0 | gandotinib 0.014 | tozasertib 0 | [7] -0.056 | doramapimod -0.049 | ispinesib -0.017

PRPF18 (UniProt Q99633)
inactive: [1] 0 | filanesib -0.009 | zotarolimus 0.012 | idasanutlin -0.024 | alisertib 0.012 | [2] -0.05 | gefitinib 0.089 | [3] 0.042 | lapatinib 0.025 | pictilisib -0.015 | [4] 0.02 | crizotinib -0.036 | [5] -0.072 | [6] -0.006 | duvelisib -0.037 | gandotinib 0.034 | tozasertib -0.148 | [7] -0.056 | doramapimod -0.013

PRDX4 (UniProt Q13162)
inactive: [1] -0.109 | filanesib -0.066 | zotarolimus -0.026 | idasanutlin -0.037 | alisertib 0.027 | [2] -0.007 | gefitinib -0.014 | [3] 0.055 | lapatinib -0.077 | pictilisib 0.041 | [4] 0.01 | crizotinib -0.02 | [5] 0.088 | [6] -0.024 | duvelisib 0.007 | gandotinib -0.038 | tozasertib -0.036 | [7] -0.051 | doramapimod -0.037 | ispinesib 0.023

PPP2R1B isoform 2 (UniProt P30154)
inactive: [1] 0.078 | filanesib -0.103 | zotarolimus 0.013 | idasanutlin -0.02 | alisertib -0.092 | [2] -0.05 | gefitinib 0.033 | [3] -0.019 | lapatinib -0.015 | pictilisib 0.111 | [4] 0.005 | crizotinib -0.096 | [5] 0.04 | [6] 0.024 | duvelisib 0.005 | gandotinib 0.059 | tozasertib 0.015 | [7] 0.028 | doramapimod 0.076 | ispinesib -0.008

PPP2R2D (UniProt Q66LE6)
inactive: [1] -0.047 | filanesib -0.027 | zotarolimus -0.06 | idasanutlin 0.075 | alisertib -0.15 | [2] -0.026 | gefitinib 0.075 | [3] 0.021 | lapatinib -0.244 | pictilisib 0.022 | [4] -0.055 | crizotinib -0.056 | [5] 0.069 | [6] 0.012 | duvelisib 0.072 | gandotinib 0.076 | tozasertib -0.063 | [7] -0.018 | doramapimod 0.053 | ispinesib 0.065

PPP1R8 (UniProt Q12972)
inactive: [1] 0.073 | filanesib -0.024 | zotarolimus 0.013 | idasanutlin 0.009 | alisertib -0.083 | [2] 0.001 | gefitinib 0.008 | [3] 0.058 | lapatinib 0.009 | pictilisib -0.012 | [4] -0.018 | crizotinib -0.036 | [5] 0.042 | [6] -0.048 | duvelisib 0.041 | gandotinib -0.047 | tozasertib -0.019 | [7] -0.003 | doramapimod 0.03 | ispinesib 0.032

PRCC (UniProt Q92733)
inactive: [1] -0.03 | filanesib -0.037 | zotarolimus -0.005 | idasanutlin 0.046 | alisertib -0.037 | [2] 0 | gefitinib -0.006 | [3] 0.066 | lapatinib -0.024 | pictilisib -0.078 | [4] 0.019 | crizotinib 0.011 | [5] -0.028 | [6] 0.038 | duvelisib 0.032 | gandotinib 0.04 | tozasertib -0.015 | [7] -0.059 | doramapimod 0.003 | ispinesib 0

PPP1R18 (UniProt Q6NYC8)
inactive: [1] 0.039 | filanesib 0.046 | zotarolimus 0.04 | idasanutlin 0 | alisertib -0.039 | [2] 0.1 | gefitinib 0.087 | [3] 0.032 | lapatinib 0.002 | pictilisib -0.02 | [4] 0 | crizotinib 0.022 | [5] 0.11 | [6] -0.052 | duvelisib 0.004 | gandotinib -0.081 | tozasertib 0.028 | [7] 0.019 | doramapimod 0.041 | ispinesib 0.02

PREB (UniProt Q9HCU5)
inactive: [1] -0.029 | filanesib -0.068 | zotarolimus -0.006 | idasanutlin 0.009 | alisertib 0.1 | [2] 0.04 | gefitinib -0.008 | [3] 0.019 | lapatinib 0.019 | pictilisib 0.053 | [4] 0.04 | crizotinib 0.034 | [5] 0.017 | [6] -0.003 | duvelisib 0.06 | gandotinib 0.006 | tozasertib -0.055 | [7] -0.016 | doramapimod 0.002 | ispinesib 0.057

PRRC1 (UniProt Q96M27)
inactive: [1] -0.034 | filanesib -0.009 | zotarolimus -0.015 | idasanutlin -0.012 | alisertib -0.053 | [2] 0.009 | gefitinib 0.016 | [3] 0.07 | lapatinib -0.022 | pictilisib 0.017 | [4] 0.01 | crizotinib 0.07 | [5] 0.024 | [6] -0.034 | duvelisib 0.011 | gandotinib 0.032 | tozasertib -0.031 | [7] -0.081 | doramapimod 0 | ispinesib -0.015

PPP6R3 isoform 5 (UniProt Q5H9R7)
inactive: [1] -0.015 | filanesib -0.041 | zotarolimus 0.019 | idasanutlin -0.041 | alisertib -0.052 | [2] -0.001 | gefitinib 0 | [3] 0.04 | lapatinib 0.007 | pictilisib 0.03 | [4] 0.013 | crizotinib 0.035 | [5] 0.092 | [6] -0.075 | duvelisib 0.021 | gandotinib -0.022 | tozasertib 0.014 | [7] -0.006 | doramapimod -0.007 | ispinesib 0.025

PPP1R11 (UniProt O60927)
inactive: [1] 0.015 | filanesib 0.03 | zotarolimus -0.021 | idasanutlin 0.056 | alisertib -0.026 | [2] 0.023 | gefitinib -0.012 | [3] 0.005 | lapatinib 0.007 | pictilisib 0.079 | [4] 0.053 | crizotinib 0.038 | [5] 0.09 | [6] -0.024 | duvelisib -0.058 | gandotinib 0.103 | tozasertib -0.027 | [7] -0.082 | doramapimod 0.018 | ispinesib -0.01

PPP6R2 isoform 5 (UniProt O75170)
inactive: [1] -0.066 | filanesib -0.009 | zotarolimus 0.022 | idasanutlin -0.055 | alisertib 0.016 | [2] -0.011 | gefitinib 0.009 | [3] 0.054 | lapatinib 0.018 | pictilisib -0.007 | [4] -0.02 | crizotinib 0.019 | [5] 0.057 | [6] -0.014 | duvelisib 0.016 | gandotinib -0.033 | tozasertib 0.014 | [7] 0.033 | doramapimod -0.012 | ispinesib 0.086

PREP (UniProt P48147)
inactive: [1] 0.026 | filanesib -0.045 | zotarolimus 0.125 | idasanutlin -0.002 | alisertib 0.036 | [2] -0.003 | gefitinib 0.024 | [3] -0.066 | lapatinib 0.008 | pictilisib -0.085 | [4] 0 | crizotinib -0.139 | [5] -0.07 | [6] 0.083 | duvelisib 0.024 | gandotinib -0.051 | tozasertib 0.258 | [7] 0.091 | doramapimod 0.064 | ispinesib -0.096
